This is one part of the list.
compound: CNCc1ccc(-c2[nH]c3cc(F)cc4c3c2CCNC4=O)cc1 [rucaparib]; assay: log2 fold change, soluble protein after heating vs DMSO (PISA); higher = thermal stabilisation; K562 cells, 10 uM, 30 min; active = over 0.2 and 3.5 SD of the protein, either way, in both replicates (recomputed)
Outline: (§1)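 Quantification of soluble protein used TMTpro 16plex LC-MS/MS, with channel sums equalised. Samples were the supernatant after 21,000xg for 90 min of pooled aliquots from K562 cells (2×10^6 cells/mL) treated with 10 μM compound for 30 min, heated for 3 min over 48°C-58°C, and extracted in PBS with 0.5% NP-40 at 4°C. Values, from duplicates, describe thermal stability against control samples on a log2 fold-change scale.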

The chains behind the UniProt entries cited, without tags or fusion partners. Where a name states a change or a piece, a line headed by the entry shows the natural chain unless it says otherwise.
UniProt Q92576, whole entry, looked up: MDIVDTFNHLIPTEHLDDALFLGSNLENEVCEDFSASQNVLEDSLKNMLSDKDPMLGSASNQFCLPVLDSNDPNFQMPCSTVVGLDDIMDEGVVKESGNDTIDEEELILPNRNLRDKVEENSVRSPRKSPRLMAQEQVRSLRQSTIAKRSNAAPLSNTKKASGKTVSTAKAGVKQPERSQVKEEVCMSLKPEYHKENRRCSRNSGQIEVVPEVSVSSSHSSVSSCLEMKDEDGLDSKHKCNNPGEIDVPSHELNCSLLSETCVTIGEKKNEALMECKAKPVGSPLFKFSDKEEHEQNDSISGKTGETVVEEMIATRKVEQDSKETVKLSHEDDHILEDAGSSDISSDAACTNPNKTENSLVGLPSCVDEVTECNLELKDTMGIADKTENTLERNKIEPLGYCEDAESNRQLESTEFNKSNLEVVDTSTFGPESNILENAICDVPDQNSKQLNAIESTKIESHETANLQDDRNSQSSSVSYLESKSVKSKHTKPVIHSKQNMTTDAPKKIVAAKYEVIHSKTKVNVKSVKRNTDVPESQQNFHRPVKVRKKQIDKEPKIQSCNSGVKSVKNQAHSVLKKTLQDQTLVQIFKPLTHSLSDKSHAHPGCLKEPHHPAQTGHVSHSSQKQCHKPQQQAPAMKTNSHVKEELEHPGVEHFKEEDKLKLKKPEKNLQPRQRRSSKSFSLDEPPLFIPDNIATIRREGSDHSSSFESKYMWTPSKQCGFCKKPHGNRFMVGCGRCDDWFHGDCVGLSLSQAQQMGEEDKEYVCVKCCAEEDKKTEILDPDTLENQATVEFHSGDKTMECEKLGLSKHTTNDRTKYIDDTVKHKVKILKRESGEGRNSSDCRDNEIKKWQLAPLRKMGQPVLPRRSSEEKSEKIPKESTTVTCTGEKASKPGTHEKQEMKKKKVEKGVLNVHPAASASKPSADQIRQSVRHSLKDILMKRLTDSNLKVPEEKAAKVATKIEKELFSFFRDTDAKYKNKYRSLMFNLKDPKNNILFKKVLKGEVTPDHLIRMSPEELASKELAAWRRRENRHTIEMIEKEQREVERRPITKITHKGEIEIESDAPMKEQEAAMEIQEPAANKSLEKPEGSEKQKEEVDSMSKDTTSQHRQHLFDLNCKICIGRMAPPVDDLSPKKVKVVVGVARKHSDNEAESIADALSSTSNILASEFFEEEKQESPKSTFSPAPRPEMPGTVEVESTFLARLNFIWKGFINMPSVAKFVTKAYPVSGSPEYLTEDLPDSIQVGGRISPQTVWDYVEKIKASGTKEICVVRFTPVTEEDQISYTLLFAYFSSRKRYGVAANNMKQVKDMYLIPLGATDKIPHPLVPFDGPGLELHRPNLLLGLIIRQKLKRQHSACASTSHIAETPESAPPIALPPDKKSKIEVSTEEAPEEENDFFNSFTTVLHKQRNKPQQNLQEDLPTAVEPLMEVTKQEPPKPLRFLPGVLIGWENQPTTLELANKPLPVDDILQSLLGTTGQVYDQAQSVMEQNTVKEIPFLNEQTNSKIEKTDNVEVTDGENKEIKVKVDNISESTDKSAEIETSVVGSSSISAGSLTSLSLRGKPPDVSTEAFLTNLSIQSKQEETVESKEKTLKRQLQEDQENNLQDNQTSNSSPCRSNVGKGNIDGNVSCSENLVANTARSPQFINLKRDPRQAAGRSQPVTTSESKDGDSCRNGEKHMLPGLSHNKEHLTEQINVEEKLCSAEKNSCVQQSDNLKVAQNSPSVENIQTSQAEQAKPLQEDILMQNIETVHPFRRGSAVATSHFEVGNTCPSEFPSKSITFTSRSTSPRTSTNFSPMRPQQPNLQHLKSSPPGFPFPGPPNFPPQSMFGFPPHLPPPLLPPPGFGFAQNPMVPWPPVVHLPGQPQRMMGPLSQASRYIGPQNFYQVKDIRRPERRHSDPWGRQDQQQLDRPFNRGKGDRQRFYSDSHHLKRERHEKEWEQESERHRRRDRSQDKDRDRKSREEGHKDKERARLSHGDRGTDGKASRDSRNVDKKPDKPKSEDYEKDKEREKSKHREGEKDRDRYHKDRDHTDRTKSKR
UniProt Q32NB8: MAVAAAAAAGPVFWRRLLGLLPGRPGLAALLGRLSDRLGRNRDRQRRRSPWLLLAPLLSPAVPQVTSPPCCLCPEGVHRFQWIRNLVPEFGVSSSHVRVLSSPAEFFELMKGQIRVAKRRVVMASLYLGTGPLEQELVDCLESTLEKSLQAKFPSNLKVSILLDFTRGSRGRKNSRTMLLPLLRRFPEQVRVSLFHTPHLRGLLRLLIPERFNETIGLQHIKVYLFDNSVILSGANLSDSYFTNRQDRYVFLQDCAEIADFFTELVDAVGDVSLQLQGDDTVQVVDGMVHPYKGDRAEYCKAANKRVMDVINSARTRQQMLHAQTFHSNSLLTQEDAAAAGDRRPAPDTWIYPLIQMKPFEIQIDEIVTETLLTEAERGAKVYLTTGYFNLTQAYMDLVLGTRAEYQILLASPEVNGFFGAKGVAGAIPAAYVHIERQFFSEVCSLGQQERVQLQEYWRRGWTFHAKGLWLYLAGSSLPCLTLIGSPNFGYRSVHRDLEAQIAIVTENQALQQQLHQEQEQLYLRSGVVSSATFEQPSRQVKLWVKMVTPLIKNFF
UniProt Q7Z7B1: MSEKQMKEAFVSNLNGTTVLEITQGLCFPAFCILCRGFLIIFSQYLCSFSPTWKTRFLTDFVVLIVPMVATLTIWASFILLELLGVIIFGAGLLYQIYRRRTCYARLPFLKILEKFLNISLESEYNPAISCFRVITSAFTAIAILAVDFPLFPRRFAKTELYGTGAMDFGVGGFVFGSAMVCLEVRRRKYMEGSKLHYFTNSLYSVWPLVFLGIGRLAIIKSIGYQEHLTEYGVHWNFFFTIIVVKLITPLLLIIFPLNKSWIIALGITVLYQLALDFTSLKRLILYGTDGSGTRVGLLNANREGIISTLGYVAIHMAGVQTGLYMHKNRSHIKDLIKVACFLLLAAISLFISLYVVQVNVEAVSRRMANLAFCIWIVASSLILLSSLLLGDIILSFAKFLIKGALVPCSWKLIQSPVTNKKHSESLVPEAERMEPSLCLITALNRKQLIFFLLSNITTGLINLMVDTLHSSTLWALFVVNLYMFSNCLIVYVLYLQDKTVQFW
UniProt Q16875: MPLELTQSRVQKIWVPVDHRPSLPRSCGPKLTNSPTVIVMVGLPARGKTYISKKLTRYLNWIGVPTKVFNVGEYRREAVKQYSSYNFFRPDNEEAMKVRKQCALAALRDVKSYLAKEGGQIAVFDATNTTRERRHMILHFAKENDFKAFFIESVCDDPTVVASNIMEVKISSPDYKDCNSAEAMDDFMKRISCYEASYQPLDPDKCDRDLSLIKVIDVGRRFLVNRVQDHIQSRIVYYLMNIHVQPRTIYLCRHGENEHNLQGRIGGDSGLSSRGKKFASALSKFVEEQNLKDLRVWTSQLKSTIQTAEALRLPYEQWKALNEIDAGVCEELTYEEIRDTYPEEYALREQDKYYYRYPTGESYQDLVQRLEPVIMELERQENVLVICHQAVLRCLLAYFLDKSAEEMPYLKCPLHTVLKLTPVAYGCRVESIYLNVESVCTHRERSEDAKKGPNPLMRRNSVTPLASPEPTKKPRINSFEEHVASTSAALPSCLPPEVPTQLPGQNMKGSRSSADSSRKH
UniProt Q99623, whole entry, looked up: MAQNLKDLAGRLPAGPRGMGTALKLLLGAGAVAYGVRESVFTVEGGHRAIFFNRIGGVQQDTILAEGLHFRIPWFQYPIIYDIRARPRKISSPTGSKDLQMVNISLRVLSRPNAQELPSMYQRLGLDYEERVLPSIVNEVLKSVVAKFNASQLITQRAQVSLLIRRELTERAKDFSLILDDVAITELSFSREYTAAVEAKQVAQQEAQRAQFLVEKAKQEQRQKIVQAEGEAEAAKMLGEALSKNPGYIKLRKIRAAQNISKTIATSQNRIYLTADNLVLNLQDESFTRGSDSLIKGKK
UniProt Q96G03: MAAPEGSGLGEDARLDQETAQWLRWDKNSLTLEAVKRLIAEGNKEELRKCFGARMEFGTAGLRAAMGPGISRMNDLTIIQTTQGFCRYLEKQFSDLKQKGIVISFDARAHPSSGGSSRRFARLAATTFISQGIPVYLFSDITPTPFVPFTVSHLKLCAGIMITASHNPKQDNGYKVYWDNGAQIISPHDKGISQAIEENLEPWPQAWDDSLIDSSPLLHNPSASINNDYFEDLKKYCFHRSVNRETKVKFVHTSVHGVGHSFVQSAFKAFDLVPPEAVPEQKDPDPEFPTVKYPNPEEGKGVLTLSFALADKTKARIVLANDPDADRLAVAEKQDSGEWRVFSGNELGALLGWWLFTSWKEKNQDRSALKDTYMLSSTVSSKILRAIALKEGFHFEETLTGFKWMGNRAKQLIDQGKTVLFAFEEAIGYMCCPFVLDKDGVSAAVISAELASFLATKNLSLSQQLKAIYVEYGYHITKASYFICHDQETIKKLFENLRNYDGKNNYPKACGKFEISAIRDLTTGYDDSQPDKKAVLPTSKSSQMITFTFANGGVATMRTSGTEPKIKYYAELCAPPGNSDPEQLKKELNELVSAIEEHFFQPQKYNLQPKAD
PIGBOS1, A0A0B4J2F0, UniProt A0A0B4J2F0, whole entry, looked up: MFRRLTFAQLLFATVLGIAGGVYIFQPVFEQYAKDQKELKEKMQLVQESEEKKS
UniProt O75167: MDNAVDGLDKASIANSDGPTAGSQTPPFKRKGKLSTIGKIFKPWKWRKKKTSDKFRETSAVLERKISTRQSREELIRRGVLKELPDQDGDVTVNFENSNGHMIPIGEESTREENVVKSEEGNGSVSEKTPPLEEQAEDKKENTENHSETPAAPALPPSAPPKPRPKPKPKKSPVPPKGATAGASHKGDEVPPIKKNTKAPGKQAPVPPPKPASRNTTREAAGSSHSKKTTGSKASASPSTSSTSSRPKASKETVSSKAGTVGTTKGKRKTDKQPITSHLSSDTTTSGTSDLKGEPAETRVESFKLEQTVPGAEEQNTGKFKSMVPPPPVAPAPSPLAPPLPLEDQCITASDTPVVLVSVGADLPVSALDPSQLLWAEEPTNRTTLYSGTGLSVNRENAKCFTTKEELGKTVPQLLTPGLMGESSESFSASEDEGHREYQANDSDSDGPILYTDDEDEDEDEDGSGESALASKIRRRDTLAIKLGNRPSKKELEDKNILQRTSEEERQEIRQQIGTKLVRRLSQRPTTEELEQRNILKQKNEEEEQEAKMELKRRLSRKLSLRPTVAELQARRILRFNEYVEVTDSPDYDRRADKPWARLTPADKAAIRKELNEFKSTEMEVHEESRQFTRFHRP
UniProt P30613: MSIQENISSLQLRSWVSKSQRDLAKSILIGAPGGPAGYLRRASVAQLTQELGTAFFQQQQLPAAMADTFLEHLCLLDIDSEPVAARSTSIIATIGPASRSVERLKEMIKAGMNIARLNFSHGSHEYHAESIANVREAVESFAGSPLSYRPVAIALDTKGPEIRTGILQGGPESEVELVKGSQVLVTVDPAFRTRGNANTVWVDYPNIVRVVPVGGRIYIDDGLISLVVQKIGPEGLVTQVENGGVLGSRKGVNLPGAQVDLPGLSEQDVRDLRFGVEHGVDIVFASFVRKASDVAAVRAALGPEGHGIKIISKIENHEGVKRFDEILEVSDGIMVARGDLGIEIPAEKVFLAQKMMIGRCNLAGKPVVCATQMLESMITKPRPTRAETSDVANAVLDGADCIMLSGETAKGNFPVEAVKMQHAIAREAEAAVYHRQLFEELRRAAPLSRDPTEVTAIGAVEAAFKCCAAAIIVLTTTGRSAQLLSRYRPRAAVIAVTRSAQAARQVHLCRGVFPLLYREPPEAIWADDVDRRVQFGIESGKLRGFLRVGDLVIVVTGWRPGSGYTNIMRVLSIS
UniProt Q9NQP4, whole entry, looked up: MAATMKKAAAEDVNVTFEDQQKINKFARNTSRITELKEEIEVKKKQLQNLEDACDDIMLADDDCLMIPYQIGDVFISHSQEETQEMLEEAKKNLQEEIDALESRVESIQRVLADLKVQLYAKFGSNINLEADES
UniProt Q6PCE3: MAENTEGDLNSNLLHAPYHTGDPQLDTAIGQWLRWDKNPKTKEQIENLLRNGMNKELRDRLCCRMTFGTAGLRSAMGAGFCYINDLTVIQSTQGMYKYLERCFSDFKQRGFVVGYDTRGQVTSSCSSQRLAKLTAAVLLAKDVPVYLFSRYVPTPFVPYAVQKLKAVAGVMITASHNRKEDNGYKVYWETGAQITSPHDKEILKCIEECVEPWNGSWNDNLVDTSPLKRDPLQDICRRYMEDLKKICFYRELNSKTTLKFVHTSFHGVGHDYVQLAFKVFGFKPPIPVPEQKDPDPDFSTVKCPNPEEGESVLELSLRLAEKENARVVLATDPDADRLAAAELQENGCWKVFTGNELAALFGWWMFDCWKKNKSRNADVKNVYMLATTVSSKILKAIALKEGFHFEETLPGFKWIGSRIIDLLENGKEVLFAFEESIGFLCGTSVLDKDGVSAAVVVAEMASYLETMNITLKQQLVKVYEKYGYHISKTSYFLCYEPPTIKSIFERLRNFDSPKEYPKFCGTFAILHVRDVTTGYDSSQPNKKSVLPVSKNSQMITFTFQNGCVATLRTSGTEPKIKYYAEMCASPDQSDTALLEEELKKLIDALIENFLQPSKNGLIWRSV

Row | Target | log2 fold change
1 | PFDN2 (UniProt Q9UHV9) | inactive: -0.01
2 | PHF6 (UniProt Q8IWS0) | inactive: 0.27
3 | PHF3 (UniProt Q92576) | inactive: 0.132
4 | PHACTR4 isoform 2 (UniProt Q8IZ21) | inactive: 0.022
5 | PEX6 (UniProt Q13608) | inactive: 0.002
6 | PLAA (UniProt Q9Y263) | inactive: -0.017
7 | PGS1 (UniProt Q32NB8) | inactive: -0.065
8 | PI4KA (UniProt P42356) | inactive: 0.184
9 | PITHD1 (UniProt Q9GZP4) | inactive: 0.058
10 | PLEC (UniProt Q15149) | inactive: 0.123

Some of the entries above in another layout.
Row,Target,log2 fold change
2,PHF6 (UniProt Q8IWS0),inactive: 0.27
3,PHF3 (UniProt Q92576),inactive: 0.132

compound: CNc1nc(-c2ccc3c(N)n[nH]c3c2)cc(N2C[C@@H](C(=O)NC3CCCCC3)CC[C@H]2C)n1; assay: as above
Outline: as §1

Row | Target | log2 fold change
11 | PIGW (UniProt Q7Z7B1) | inactive: -0.047
12 | PGP (UniProt A6NDG6) | inactive: -0.043
13 | PFKM isoform 3 (UniProt P08237) | inactive: -0.006
14 | PLA2G12A (UniProt Q9BZM1) | inactive: 0.007
15 | PFKFB3 isoform 4 (UniProt Q16875) | inactive: 0.047
16 | PHB2 (UniProt Q99623) | inactive: -0.043
17 | PGM2 (UniProt Q96G03) | inactive: -0.013
18 | PIGBOS1, A0A0B4J2F0 | inactive: -0.02
19 | PHACTR2 isoform 4 (UniProt O75167) | inactive: -0.002
20 | PKLR (UniProt P30613) | inactive: -0.016
21 | PHKB isoform 3 (UniProt Q93100) | inactive: 0.016
22 | PFDN4 (UniProt Q9NQP4) | inactive: -0.048
23 | PGM2L1 (UniProt Q6PCE3) | inactive: -0.037

Reference: the supplement of paper PMC10849652
